According to patent publication US20050013781A1, “Sunscreen composition” (Playtex Products, Inc., priority 2003, published 2005):
Some entries share one result that the patent states for a list of compounds. Some ranges recur; such a range may be that of the whole group of compounds.

Assay: Dielectric constant of sunscreen oil phase (Scientifica Model 850 meter)
Assay type: physicochemical
Conditions: oil phase with 5 g additive

Row | Structure (SMILES) | dielectric constants of sunscreen compositions containing the additive
1 | CCCCC(O)CO (centres unmarked) [1,2-Hexanediol] | 8.0-8.1
2 | CCCCCCC(O)CO (centres unmarked) [1,2-Octanediol] | 8.0-8.1
